In paper PMC11445578:
These are yes or no findings as the source states them, for the method shown. Binding seen in cells or lysates may run through a third protein. Some entries that bind do so weakly or less than the wild type.

By UniProt entry, the sequences of proteins in these tests, tags left out.
UniProt Q9Y5K6: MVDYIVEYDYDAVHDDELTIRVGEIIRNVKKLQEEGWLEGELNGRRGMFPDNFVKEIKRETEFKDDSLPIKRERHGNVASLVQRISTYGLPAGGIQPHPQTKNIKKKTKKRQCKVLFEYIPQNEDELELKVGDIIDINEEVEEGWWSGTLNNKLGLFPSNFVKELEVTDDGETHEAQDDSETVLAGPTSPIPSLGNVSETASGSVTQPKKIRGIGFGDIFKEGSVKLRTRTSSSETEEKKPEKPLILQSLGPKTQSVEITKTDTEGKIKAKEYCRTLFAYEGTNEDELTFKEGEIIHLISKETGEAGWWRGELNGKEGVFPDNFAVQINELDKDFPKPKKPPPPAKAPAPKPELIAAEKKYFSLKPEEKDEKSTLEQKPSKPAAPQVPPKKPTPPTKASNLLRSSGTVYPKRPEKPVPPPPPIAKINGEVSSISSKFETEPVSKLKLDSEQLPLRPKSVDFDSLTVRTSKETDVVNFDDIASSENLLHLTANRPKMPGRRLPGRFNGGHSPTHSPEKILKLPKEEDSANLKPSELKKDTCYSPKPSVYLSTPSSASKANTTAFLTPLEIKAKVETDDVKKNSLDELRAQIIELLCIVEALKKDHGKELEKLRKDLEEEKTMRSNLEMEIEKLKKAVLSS
UniProt Q9C035: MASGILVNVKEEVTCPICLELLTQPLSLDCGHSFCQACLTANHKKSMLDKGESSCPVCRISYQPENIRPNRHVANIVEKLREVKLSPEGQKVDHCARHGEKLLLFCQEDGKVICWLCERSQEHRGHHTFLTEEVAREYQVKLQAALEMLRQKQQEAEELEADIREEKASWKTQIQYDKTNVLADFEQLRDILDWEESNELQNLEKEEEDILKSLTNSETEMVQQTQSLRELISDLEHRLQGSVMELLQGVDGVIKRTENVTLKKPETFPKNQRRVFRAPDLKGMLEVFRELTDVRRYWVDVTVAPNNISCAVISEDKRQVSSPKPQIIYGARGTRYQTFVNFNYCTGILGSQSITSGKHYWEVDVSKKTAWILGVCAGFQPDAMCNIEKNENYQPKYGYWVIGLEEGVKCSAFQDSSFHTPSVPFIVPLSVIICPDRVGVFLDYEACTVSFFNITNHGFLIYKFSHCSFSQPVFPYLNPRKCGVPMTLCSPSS

Columns and labels:
[1] = biological target: CD2AP co-expressed in HEK 293T cells (human) (UniProt Q9Y5K6); assay: co-IP; CD2AP and TRIM5 co-expressed in HEK 293T cells; lysates incubated with primary antibodies and protein A/G MagBeads at 4 °C overnight, western blot
[2] = biological target: CD2AP fused with the C-terminal fragment of Venus (human) (UniProt Q9Y5K6); assay: split reporter; Venus BiFC in HEK293T cells transfected with TRIM5-VN and/or CD2AP-VC; fluorescence observed by microscopy
[3] = biological target: CD2-associated protein (CD2AP), endogenous (human (endogenous in U87MG and U251)) (UniProt Q9Y5K6); assay: co-IP; endogenous proteins in U87MG and U251 cell lysates; primary antibodies and protein A/G MagBeads at 4 °C overnight, immunoblotted with anti-CD2AP and anti-TRIM5 antibodies

Substance: TRIM5 co-expressed in HEK 293T cells (from UniProt Q9C035 1-493)
- binding [1]: binds

Substance: TRIM5 fused with the N-terminal fragment of Venus (from UniProt Q9C035 1-493)
- binding [2]: binds

Substance: TRIM5, endogenous (from UniProt Q9C035 1-493)
- binding [3]: binds
